Data source: PubChem BioAssay AID686943 (Drosophila RNAi Screening Center, 2013)

- Purpose: 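Search across the genome for regulators of signalling from receptor tyrosine kinase to ERK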 (primary screen)
- Cells: Drosophila S2R+ haemocyte-like cells expressing YFP-tagged ERK (Rolled)
- Knock-down reagent: long dsRNA against Drosophila genes
- Treatment: insulin stimulation versus unstimulated cells; dose and duration not given
- Detection: 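Per-plate z-scores of phospho-ERK immunostaining normalised to YFP-tagged ERK, measured with and without insulin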
- Reading the numbers: replicate 1, z-score of dpERK with insulin and replicate 2, z-score of dpERK with insulin: higher = more active ERK per ERK-YFP after insulin; replicate 1, z-score of dpERK under basal conditions: higher = more basal active ERK per ERK-YFP; replicate 1, z-score of ERK-YFP with insulin: higher = more YFP-tagged ERK signal
The screen tested about 23,000 reagents; this is an unselected part of those that have a named target and a result. 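Extra replicates exist only for a retested subset of genes; insulin dose and duration not given; both raised and lowered dpERK matter.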 Reagents against one gene are numbered here. Names joined by + are all predicted targets of the reagent. The record does not give: the amount of reagent, the time to read-out.

target gene	dsRNA no.	replicate 1, z-score of dpERK with insulin	replicate 2, z-score of dpERK with insulin	replicate 1, z-score of dpERK under basal conditions	replicate 1, z-score of ERK-YFP with insulin
Mpc1	1	1.89	0.04	-0.48	-0.69
CG34458	1	0.85	0.75	-0.22	0.42
RpS9 (Ribosomal protein S9)	1	1.87	-1.77	-1.11	-5.76
CG8004	1	-1.25	-1.34	-0.34	0.4
otu (ovarian tumor)	1	0.31	-0.1	0	-0.67
CG18558	1	-1.5	-1.11	1.13	0.25
CG18558	2	0.58	0.01	-1.01	0.28
CG12520	1	0.32	0.39	-0.07	0.46
Toll-4	1	0.28	0.39	0.92	0.4
CG10479	1	0.06	0.45	1.05	-0.19
CG10853	1	2.02	1.78	0.04	1.46
tst + CG10375	1	0.02	0.43	0.83	-0.87
CG14383	1	0.63	0.89	-0.44	-0.31
rpr (reaper)	1	1.69	-0.17	2.88	0.23
Meics (Meiotic central spindle)	1	-1.08	-1.33	-0.96	-0.08
CG11807	1	-0.53	-1.61	1.44	1.18
TM9SF2 (Transmembrane 9 superfamily protein member 2)	1	0.62	1.83	3.57	-0.87
Fbp1 (Fat body protein 1)	1	-3	-2.49	-0.52	-2.02
Hr39 (Hormone receptor-like in 39)	1	-0.72	-0.02	0.43	1.25
Rad23	1	-0.66	0.08	0.93	0.92
Poxn (Pox neuro)	1	1.05	0.64	1.83	0.39
Poxn (Pox neuro)	2	0.75	-0.87	0.19	0.47
Fas3 (Fasciclin 3)	1	-0.92	-0.04	-0.19	1.28
Fas3 (Fasciclin 3)	2	-0.19	-1.48	-0.19	-1.04
Fas3 (Fasciclin 3)	3	1.81	-2.07	-0.47	-1.84

Entries listed so far whose target name starts with M or m (2):
target gene	dsRNA no.	replicate 1, z-score of dpERK with insulin	replicate 2, z-score of dpERK with insulin	replicate 1, z-score of dpERK under basal conditions	replicate 1, z-score of ERK-YFP with insulin
Mpc1	1	1.89	0.04	-0.48	-0.69
Meics (Meiotic central spindle)	1	-1.08	-1.33	-0.96	-0.08
